Experimental data as given in PubChem BioAssay AID192 (DTP/NCI, 2004).
The list shows only some results of the screen, not a fair sample: it gathers tests that were run many times, whatever their T/C, doses with no T/C, and many T/C values between a quarter and a half above the control. Further doses and runs are listed elsewhere. T/C: endpoint of the treated group in % of that of the vehicle group. Some entries give survivors of the animals treated and no T/C: the source holds a T/C of zero for them, seemingly a mark for toxic or unscored doses. Some survivor counts are full or nearly so, which does not show that the dose was tolerated: the source hardly ever lists a survival T/C far under the control, and the zero likely stands for such cases as well. Survivors were counted at the toxicity check, usually on the fifth day, unless a day is given; later deaths do not show. Schedule codes are those of the source, taken here to give the interval after Q, in days (D) or hours (H), and the number of doses after X. Counts like (3×) count equal records among those shown. Some entries hold several experiments; the results are listed from low to high. For survival time, the PubChem record calls one and a half times the control and up active, and a quarter to a half above the control has no call in these data; cut-offs in other NCI protocols can differ. Some T/C values carry the count of animals alive at the toxicity check (mostly the fifth day); where none is given, no animal had died by that day.

Tested on: BDF1 mice, B16 melanoma ip, median survival T/C
Test: NCI In Vivo Anticancer Drug Screen. Data for tumor model B16 Melanoma (intraperitoneal) in B6D2F1 (BDF1) mice
Settings: T/C endpoint: median survival time, higher T/C = longer survival
Outline: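 Transplantable tumor model; survival or tumor size measured; reported as T/C, treated over vehicle control.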

[1] = dose: 2.0 mg/kg/injection, schedule: Q01DX009 (ip), vehicle: Klucel (hydroxypropylcellulose) (HPC)
[2] = dose: 8.0 mg/kg/injection, schedule: Q01DX009 (ip), vehicle: Klucel (hydroxypropylcellulose) (HPC)
[3] = dose: 16.0 mg/kg/injection, schedule: Q01DX009 (ip), vehicle: Klucel (hydroxypropylcellulose) (HPC)
[4] = dose: 30.0 mg/kg/injection, schedule: Q01DX001 (ip), vehicle: Klucel (hydroxypropylcellulose) (HPC)
[5] = dose: 60.0 mg/kg/injection, schedule: Q01DX001 (ip), vehicle: Klucel (hydroxypropylcellulose) (HPC)
[6] = dose: 60.0 mg/kg/injection, schedule: Q01DX001 (ip), vehicle: saline
[7] = dose: 200.0 mg/kg/injection, schedule: Q01DX009 (ip), vehicle: saline with Tween-80

Q: Which results are given for `CC1CCC(NC(=O)N(CCCl)N=O)CC1` (centres undefined)?
A: T/C (dose: 1.0 mg/kg/injection, schedule: Q01DX009 (ip), vehicle: Klucel (hydroxypropylcellulose) (HPC)): 96 (2×), 102 (2×), 107, 111, 117, 124 % of control; T/C [1]: 100, 101, 105 (5×), 107, 108, 110 (2×), 112, 113 (2×), 117, 118, 118 [5 of 6 alive], 120, 122, 125, 126, 171, 195 % of control; survivor count [1]: 6 of 6; T/C (dose: 2.0 mg/kg/injection, schedule: Q01DX009 (ip), vehicle: saline with Tween-80, evaluated on day 45): 102, 105, 159 % of control; T/C (dose: 2.0 mg/kg/injection, schedule: Q01DX009 (ip), vehicle: saline with Tween-80, evaluated on day 60): 98, 100, 110 % of control (2×); T/C (dose: 2.0 mg/kg/injection, schedule: Q01DX009 (ip), vehicle: saline): 94, 97, 102, 110 % of control; T/C (dose: 4.0 mg/kg/injection, schedule: Q01DX009 (ip), vehicle: Klucel (hydroxypropylcellulose) (HPC)): 102, 105, 110 (3×), 117 [9 of 10 alive], 120, 122, 123, 125, 125 [5 of 6 alive], 127, 128, 129, 131, 132, 136, 138, 139, 141, 157, 158, 168, 187 % of control; T/C (dose: 4.0 mg/kg/injection, schedule: Q01DX009 (ip), vehicle: other): 127 % of control; T/C (dose: 4.0 mg/kg/injection, schedule: Q01DX009 (ip), vehicle: saline with Tween-80, evaluated on day 45): 105 [5 of 6 alive], 116, 140 % of control; T/C (dose: 4.0 mg/kg/injection, schedule: Q01DX009 (ip), vehicle: saline with Tween-80, evaluated on day 60): 95, 105, 107, 108 % of control; T/C (dose: 4.0 mg/kg/injection, schedule: Q01DX009 (ip), vehicle: saline): 95, 97, 110, 115 % of control; T/C (dose: 7.5 mg/kg/injection, schedule: Q01DX001 (ip), vehicle: saline): 130 % of control; T/C (dose: 7.5 mg/kg/injection, schedule: Q04DX003 (ip), vehicle: other): 136 % of control; T/C [2]: 102, 111, 112, 117, 122, 128, 135, 143, 144, 150, 160, 165 (3×), 165 [5 of 6 alive], 167, 174, 194 (2×), 220, 333 % of control; survivor count [2]: 10 of 10 and 6 of 6; T/C (dose: 8.0 mg/kg/injection, schedule: Q01DX009 (ip), vehicle: saline with Tween-80, evaluated on day 45): 105 and 140 % of control (2×); T/C (dose: 8.0 mg/kg/injection, schedule: Q01DX009 (ip), vehicle: saline with Tween-80, evaluated on day 60): 126, 133, 153, 178 % of control; T/C (dose: 8.0 mg/kg/injection, schedule: Q01DX009 (ip), vehicle: saline): 121, 126, 139, 194 % of control; T/C (dose: 14.4 mg/kg/injection, schedule: Q01DX001 (ip), vehicle: distilled water + Tween-80 + alcohol): 131 % of control; T/C (dose: 15.0 mg/kg/injection, schedule: Q01DX001 (ip), vehicle: Klucel (hydroxypropylcellulose) (HPC)): 100 [5 of 6 alive], 105, 106, 107, 110 [4 of 6 alive], 112, 114 (2×), 117 (2×), 118, 128, 150, 151, 168, 173, 177, 202, 210 % of control; T/C (dose: 15.0 mg/kg/injection, schedule: Q01DX001 (ip), vehicle: saline with Tween-80, evaluated on day 45): 90, 117 [5 of 6 alive], 119, 135 % of control [5 of 6 alive]; T/C (dose: 15.0 mg/kg/injection, schedule: Q01DX001 (ip), vehicle: saline with Tween-80, evaluated on day 60): 97, 98, 100, 155 % of control; T/C (dose: 15.0 mg/kg/injection, schedule: Q01DX001 (ip), vehicle: saline): 103, 110 [5 of 6 alive], 121, 152, 167 % of control; T/C [3]: 92, 94, 103 [4 of 6 alive], 107 [5 of 6 alive], 110, 111, 158, 165, 169, 192 [5 of 6 alive], 220 % of control; survivor count [3]: 8 of 10, 10 of 10, 6 of 6; T/C (dose: 16.0 mg/kg/injection, schedule: Q01DX009 (ip), vehicle: saline with Tween-80, evaluated on day 45): 110 % of control; T/C (dose: 16.0 mg/kg/injection, schedule: Q01DX009 (ip), vehicle: saline with Tween-80, evaluated on day 60): 92 and 150 % of control; survivor count (dose: 16.0 mg/kg/injection, schedule: Q01DX009 (ip), vehicle: saline with Tween-80): 6 of 6 (2×); T/C (dose: 16.0 mg/kg/injection, schedule: Q01DX009 (ip), vehicle: saline): 142 % of control; T/C [4]: 90, 107 [4 of 6 alive], 117 [5 of 6 alive], 125, 126, 132 (3×), 136, 153, 156, 184 (2×), 193, 194, 195, 218, 333 % of control; survivor count [4]: 6 of 6; T/C (dose: 30.0 mg/kg/injection, schedule: Q01DX001 (ip), vehicle: saline with Tween-80, evaluated on day 45): 120, 125, 133, 155 % of control [5 of 6 alive]; T/C (dose: 30.0 mg/kg/injection, schedule: Q01DX001 (ip), vehicle: saline with Tween-80, evaluated on day 60): 113, 116, 136, 194 % of control; T/C (dose: 30.0 mg/kg/injection, schedule: Q01DX001 (ip), vehicle: saline): 119, 137, 178, 219, 228 % of control; survivor count (dose: 32.0 mg/kg/injection, schedule: Q01DX009 (ip), vehicle: Klucel (hydroxypropylcellulose) (HPC)): 10 of 10; survivor count (dose: 40.0 mg/kg/injection, schedule: Q04DX003 (ip), vehicle: other): 8 of 10; T/C [5]: 91, 93 [5 of 6 alive], 95, 100, 106, 111, 115 [5 of 6 alive], 125, 131, 147, 173, 257, 285, 333 % of control; survivor count [5]: 5 of 6 and 6 of 6; T/C (dose: 60.0 mg/kg/injection, schedule: Q01DX001 (ip), vehicle: saline with Tween-80, evaluated on day 45): 95 and 120 % of control; T/C (dose: 60.0 mg/kg/injection, schedule: Q01DX001 (ip), vehicle: saline with Tween-80, evaluated on day 60): 169 and 215 % of control; survivor count (dose: 60.0 mg/kg/injection, schedule: Q01DX001 (ip), vehicle: saline with Tween-80): 5 of 6 and 6 of 6; T/C [6]: 94, 134, 142, 234 % of control; survivor count [6]: 6 of 6; survivor count (dose: 64.0 mg/kg/injection, schedule: Q01DX009 (ip), vehicle: Klucel (hydroxypropylcellulose) (HPC)): 10 of 10

Q: What does the source list for `C[CH2][Ge]([CH2]C)[CH2]C.C[CH2][Ge]([CH2]C)[CH2]C.C[CH2][Ge]([CH2]C)[O][Ge]([CH2]C)[CH2]C`?
A: survivor count (dose: 25.0 mg/kg/injection, schedule: Q01DX009 (ip), vehicle: saline with Tween-80): 10 of 10; survivor count (dose: 50.0 mg/kg/injection, schedule: Q01DX009 (ip), vehicle: saline with Tween-80): 10 of 10; survivor count (dose: 100.0 mg/kg/injection, schedule: Q01DX009 (ip), vehicle: saline with Tween-80): 10 of 10; survivor count [7]: 0 of 10 and 8 of 10; survivor count (dose: 400.0 mg/kg/injection, schedule: Q01DX009 (ip), vehicle: saline with Tween-80): 0 of 10

Q: How did the survivor count (dose: 100.0 mg/kg/injection, schedule: Q01DX009 (ip), vehicle: saline) turn out when `COc1ccccc1N1C(N)=NC(N)=NC1(C)C` was run?
A: 4 of 10

Q: For `COc1cccc2c1C(=O)c1c(O)c3c(c(O)c1C2=O)C[C@@](O)(/C(CO)=N/NC(=O)c1ccc(Cl)c(Cl)c1)C[C@@H]3OC1CC(N)C(O)C(C)O1` (some centres undefined), which T/C (dose: 5.0 mg/kg/injection, schedule: Q01DX001 (ip), vehicle: other) is on record?
A: 136 % of control

Q: What about the T/C (dose: 10.0 mg/kg/injection, schedule: Q01DX001 (ip), vehicle: other) of the same molecule?
A: 136 % of control

Q: And the T/C (dose: 20.0 mg/kg/injection, schedule: Q01DX001 (ip), vehicle: water)?
A: 136 % of control

Q: And the T/C (dose: 40.0 mg/kg/injection, schedule: Q01DX001 (ip), vehicle: other)?
A: 125 % of control

Q: What about the T/C (dose: 40.0 mg/kg/injection, schedule: Q01DX001 (ip), vehicle: water) of the same molecule?
A: 131 % of control

Q: What about the survivor count (dose: 80.0 mg/kg/injection, schedule: Q01DX001 (ip), vehicle: other) of the same molecule?
A: 9 of 10

Q: And the survivor count (dose: 80.0 mg/kg/injection, schedule: Q01DX001 (ip), vehicle: water)?
A: 9 of 10

Q: How did the survivor count (dose: 4.0 mg/kg/injection, schedule: Q04DX003 (ip), vehicle: saline) turn out when `CO[C@H]1C[C@H](O[C@H]2CC[C@]3(C=O)[C@H]4CC[C@]5(C)[C@@H](C6=CC(=O)OC6)CC[C@]5(O)[C@@H]4CC[C@]3(O)C2)O[C@H](C)[C@H]1O[C@@H]1O[C@H](CO)[C@@H](O)[C@H](O)[C@H]1O` was run?
A: 6 of 10

Q: How did the survivor count [7] turn out when `CC1(C)OC2OC(COC(=O)c3ccccc3)C(=O)C2O1` (centres undefined) was run?
A: 10 of 10
